Results are given in words; binding and its absence hold for the method and conditions named. In cells and extracts the contact can be indirect. Some results given as binding are weak or reduced against the parent protein; the word gives no strength.
Key:
[1] = biological target: p38α MAPK (human (endogenous in K562)) (UniProt Q16539); assay: co-IP; endogenous proteins from K562 cell lysates; immunoprecipitation with an anti-p38α specific antibody or an anti-PRMT1 specific antibody, blot for the other protein; mouse IgG as negative control
[2] = biological target: Protein arginine methyltransferase 1 (human (endogenous in K562)) (UniProt Q99873); assay: as above

Chains of the proteins cited; added tags and fusions are not shown.
UniProt Q16539: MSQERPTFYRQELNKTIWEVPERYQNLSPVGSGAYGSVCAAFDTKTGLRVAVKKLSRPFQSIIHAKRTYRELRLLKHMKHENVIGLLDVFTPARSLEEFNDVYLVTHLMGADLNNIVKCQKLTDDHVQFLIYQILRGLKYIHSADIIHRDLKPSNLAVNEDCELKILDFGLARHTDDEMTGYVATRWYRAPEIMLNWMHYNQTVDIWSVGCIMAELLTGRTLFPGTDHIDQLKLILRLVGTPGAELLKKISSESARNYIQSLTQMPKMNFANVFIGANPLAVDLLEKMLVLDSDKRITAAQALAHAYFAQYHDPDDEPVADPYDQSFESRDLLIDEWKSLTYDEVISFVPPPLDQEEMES
UniProt Q99873: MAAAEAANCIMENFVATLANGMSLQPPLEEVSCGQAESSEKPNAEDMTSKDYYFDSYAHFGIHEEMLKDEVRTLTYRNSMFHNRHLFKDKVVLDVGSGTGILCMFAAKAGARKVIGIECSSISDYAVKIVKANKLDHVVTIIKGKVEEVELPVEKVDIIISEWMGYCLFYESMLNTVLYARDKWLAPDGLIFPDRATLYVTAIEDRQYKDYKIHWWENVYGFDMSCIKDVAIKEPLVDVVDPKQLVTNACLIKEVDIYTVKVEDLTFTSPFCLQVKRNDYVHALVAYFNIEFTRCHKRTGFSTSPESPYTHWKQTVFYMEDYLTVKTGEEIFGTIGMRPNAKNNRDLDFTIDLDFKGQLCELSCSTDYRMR

Row | binding [1] | binding [2] | Substance
1 | binds |  | Protein arginine methyltransferase 1 (from UniProt Q99873 1-371) (enzyme)
2 |  | binds | p38α MAPK (from UniProt Q16539 1-360) (enzyme)
